# Experimental data published in patent US20110171230A1, “Method of Identifying Agents that Promote Axonal Development” (The Johns Hopkins University, priority 2008, published 2011).
# “Also recorded” adds a separate entry of the source. At least one compound was matched to its structure with a doubt left.
# What was measured:
# [1] = test system: TRPC1 binding to GST-Homer; assay: GST-Homer pull-down of TRPC1 from lysates of treated HEK293 cells; assay type: cell-based, human
# Experimental: GST pull-down, Co-IP and immunocytochemistry. Protein binding assays were done as previously described (Yuan et al., Cell 114:777-89, 2003). Transfected cells were harvested and lysed using 500 μl of binding buffer (1×PBS buffer containing 1 mM NaVO3, 10 mM NaPyrophosphate, 50 mM NaF [pH 7.4], and 1% Triton X-100). The cell extracts were sonicated, and insoluble material was spun down at 30,000 g for 20 min. For GST pull-down, GST-H3 EVH was expressed in BL21 bacterial cells by growing a 400 ml culture at 37 C until […] was 0.4-0.6. Cells were induced with […] IPTG for an additional hour, harvested, lysed in […] of 1% Triton X-100 in 1×PBS+[…] PMSF, sonicated 3×10 strokes, and spun down at 12,000 g for 5 min. The supernatant was mixed 1:1 with a slurry of GST-agarose beads (Sigma) for 30 min at 4 C. Beads were washed 2 times with 1% Triton X-100 in 1×PBS and 2 times with 1×PBS. 50 μl of 1:1 slurry of GST-H3 EVH beads were used per 100 μl cell extract and rocked for 2 hr at 4° C. For co-IP experiments, 1 μg of purified antibody or 2 μl of crude antiserum was added to 100 μl of cell extract and incubated for 1 hr at 4° C. Then, 1:1 slurry of protein A or G SEPHAROSE 4B beads were added to the antibody-extract mix and incubated for an additional hour at 4° C. Beads were washed 3×10 min with binding buffer, and proteins were released from the beads with SDS-loading buffer and subjected to western blot analysis. For the FK506 time response assay, FK506 was added directly to the media of transfected cells to a final concentration of 150 nM at various time points: 15, 30 min; 1, 3, 6, 12, 24 hrs before cells were harvested. Extracts were made and used for GST-Homer pull-down assay. For 3-(3-pyridyl)-1-propyl (2S)-1-(3,3-dimethyl-1,2-dioxopentyl)-2-pyrrolidinecarboxylate (GPI-1046) dosage response assay, GPI-1046 was administered for 30 min directly to the media 24 hrs after transfection, and lysates were assayed for GST-Homer pull-down.
# [2] = test system: growth cones of Xenopus spinal neurons; assay: Growth cone turning assay in a netrin-1 gradient; assay type: cell-based; details: netrin-1 5 μg/ml in the pipette; bath application of 100 nM; 30 min
# Experimental: Growth cone turning assay. Microscopic gradients of netrin-1 (5 μg/ml in the pipette), MAG (150 μg/ml in the pipette) and GPI-1046 (100 μM in the pipette) were produced as previously described (Lohof et al., J Neurosci 12:1253-61, 1992; and Zheng et al., Nature 368:140-4, 1994). […] Xenopus spinal neurons were used 14 to 20 hrs after plating and neurons with the lineage-tracer were identified under fluorescent microscope and used for turning assay at room temperature as previously described (Ming et al., Nature 417:411-8, 2002; Ming et al., Neuron 19:1225-35, 1997; Lohof et al., J Neurosci 12:1253-61, 1992; and Zheng et al., Nature 368:140-4, 1994). GFP^+ hippocampal neurons were used 48-72 hours after plating and individual axon was identified for turning assay at the room temperature. The turning angle was defined by the angle between the original direction of neurite extension and a straight line connecting the positions of the center of the growth cone at the onset and the end of the 30 min period. The rates of neurite extension were calculated based on the net neurite extension during the turning assay. Only those growth cones of isolated neurons with a net neurite extension >5 μm over the 30-min period were included for analysis. Statistical significance was assessed using the Kolmogorov-Smirnov test.
# [3] = test system: commissural interneuron axons in developing Xenopus embryos; assay: Commissural interneuron axon midline guidance in developing spinal cord (3A10 immunostaining); assay type: in vivo; details: 0.5 μM applied to Xenopus embryos between stage 22-25
# Experimental: Xenopus embryo injection and cell culture. Blastomere injections of morpholino oligos or mRNAs encoding TRPC1, FKBP52 or their mutant forms into early stages of Xenopus embryos and culturing of spinal neurons from these injected embryos were performed as previously described (Shim et al., Nat Neurosci 8:730-5, 2005). Specifically, fertilized embryos were injected at the one- or two-cell stage, with a mixture of the morpholino (10 ng/embryo) or mRNA (2-3 ng/embryo), and a lineage tracer. The following DNA constructs were subcloned into the pCS2 vector and used for in vitro transcription with the mMESSAGE mMACHINE SP6 kit (Ambion): Myc-FKBP52-WT, Myc-FKBP52-FD67DV, HA-TRPC1-WT, HA-TRPC1-P645L, HA-TRPC1-P645A, GFP-XTRP C1. A morpholino oligo directed against Xenopus DCC (XDCC-MO) was designed with the following sequence: 5′ […] 3′. Injected embryos at stage 22 were used for cultures of spinal neurons as previous described (Shim et al., Nat Neurosci 8:730-5, 2005).
# Whole-mount immunocytochemistry and confocal imaging. Embryos at stage 23-28 were fixed and processed for immunocytochemistry as previously described (Shim et al., Nat Neurosci 8:730-5, 2005; and Gomez et al., Nature 397:350-5, 1999). […] Statistical significance was assessed using the Bootstrap test and accepted if p <0.01.
structure (smiles),measurement,setting,value
C=CC[C@@H]1/C=C(\C)C[C@H](C)C[C@H](OC)[C@H]2O[C@@](O)(C(=O)C(=O)N3CCCC[C@H]3C(=O)O[C@H](/C(C)=C/[C@@H]3CC[C@@H](O)[C@H](OC)C3)[C@H](C)[C@@H](O)CC1=O)[C@H](C)C[C@@H]2OC [FK506],TRPC1 binding to GST-Homer,"[1]; HEK293 cells expressing TRPC1, FK506 150 nM for 15 min to 24 hrs",increases TRPC1 binding to GST-Homer 3; also recorded: enhancement of TRPC1 binding to GST-Homer
same,duration of enhancement of TRPC1 binding to GST-Homer,"[1]; HEK293 cells, FK506 150 nM",≥ 6 h
same,onset of enhancement of TRPC1 binding to GST-Homer,"[1]; HEK293 cells, FK506 150 nM",≤ 30 min
same,growth cone turning response in a netrin-1 gradient,[2],attractive growth cone turning responses were completely abolished
same,commissural interneuron axon midline guidance,[3],significant guidance defects
